One assay concerns the target T1, GST-RIP1(27–439) (UniProt P48552).
T1 sequence: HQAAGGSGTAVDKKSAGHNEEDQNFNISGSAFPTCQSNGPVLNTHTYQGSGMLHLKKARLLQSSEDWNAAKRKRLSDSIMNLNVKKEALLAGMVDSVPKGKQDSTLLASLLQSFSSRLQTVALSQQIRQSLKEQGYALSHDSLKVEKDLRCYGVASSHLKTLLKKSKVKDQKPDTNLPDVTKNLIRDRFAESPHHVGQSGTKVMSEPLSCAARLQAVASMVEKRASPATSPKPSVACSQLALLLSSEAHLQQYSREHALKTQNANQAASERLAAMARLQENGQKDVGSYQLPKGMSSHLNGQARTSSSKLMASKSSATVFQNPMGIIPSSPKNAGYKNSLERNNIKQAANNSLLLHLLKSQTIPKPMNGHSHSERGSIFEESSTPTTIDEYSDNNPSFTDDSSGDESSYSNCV
The assay is described as follows: pull-down; purified GST fusion proteins on glutathione sepharose 4B beads incubated with cell-free-synthesized unlabeled protein in NETN buffer (20 mM Tris pH 8, 100 mM NaCl, 1 mM EDTA, 0.5% Nonidet-P40, 1 mM DTT) overnight at 4 °C; 4 washes; SDS/PAGE; only the target purified.

The target in assay [1] is T2, RIP140 (receptor-interacting protein of 140 kDa), endogenous (human (endogenous in SW620 and HT29)) (UniProt P48552).
T2 sequence: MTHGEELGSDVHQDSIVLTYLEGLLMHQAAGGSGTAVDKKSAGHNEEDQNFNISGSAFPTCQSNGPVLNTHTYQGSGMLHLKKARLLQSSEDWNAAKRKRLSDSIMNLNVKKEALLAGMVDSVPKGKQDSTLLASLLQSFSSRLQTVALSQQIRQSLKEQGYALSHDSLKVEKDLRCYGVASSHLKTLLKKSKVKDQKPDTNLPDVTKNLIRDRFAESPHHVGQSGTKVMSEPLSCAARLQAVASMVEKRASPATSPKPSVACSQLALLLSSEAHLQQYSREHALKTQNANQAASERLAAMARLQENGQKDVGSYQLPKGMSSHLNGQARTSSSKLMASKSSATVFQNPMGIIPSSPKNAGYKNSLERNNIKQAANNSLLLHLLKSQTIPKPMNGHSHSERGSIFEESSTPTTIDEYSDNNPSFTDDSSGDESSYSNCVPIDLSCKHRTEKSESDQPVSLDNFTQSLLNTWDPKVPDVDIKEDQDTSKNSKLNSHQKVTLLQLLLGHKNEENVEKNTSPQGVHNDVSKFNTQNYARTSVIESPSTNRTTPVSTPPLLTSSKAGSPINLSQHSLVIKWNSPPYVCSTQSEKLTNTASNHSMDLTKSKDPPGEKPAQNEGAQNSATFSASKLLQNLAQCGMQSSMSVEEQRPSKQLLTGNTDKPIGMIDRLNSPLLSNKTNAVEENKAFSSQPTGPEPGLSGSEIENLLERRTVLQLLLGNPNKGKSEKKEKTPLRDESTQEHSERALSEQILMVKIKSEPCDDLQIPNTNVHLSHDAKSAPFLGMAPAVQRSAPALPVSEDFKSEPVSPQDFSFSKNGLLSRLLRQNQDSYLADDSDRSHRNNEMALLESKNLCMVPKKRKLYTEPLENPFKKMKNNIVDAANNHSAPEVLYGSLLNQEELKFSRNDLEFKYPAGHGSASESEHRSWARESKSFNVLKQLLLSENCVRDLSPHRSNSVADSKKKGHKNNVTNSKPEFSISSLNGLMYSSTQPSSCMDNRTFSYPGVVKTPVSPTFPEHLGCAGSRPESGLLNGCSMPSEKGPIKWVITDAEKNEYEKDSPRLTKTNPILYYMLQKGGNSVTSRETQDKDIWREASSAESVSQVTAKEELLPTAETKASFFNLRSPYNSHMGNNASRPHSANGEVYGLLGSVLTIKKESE
Description: proximity ligation; Duolink PLA in fixed, permeabilised HT29 cells with primary antibodies against RIP140 (sc-9459) and HES1 (#11988); endogenous proteins.

Assay [2] deals with T2, RIP140 (receptor-interacting protein of 140 kDa), endogenous (human (endogenous in SW620 and HT29)). The assay is described as follows: proximity ligation; Duolink PLA in fixed, permeabilised SW620 cells with primary antibodies against RIP140 (sc-9459) and HES1 (#11988); endogenous proteins.

No constants are given. Whether binding was seen depends on the method and setting. Binding seen in cells or lysates may run through a third protein. Some binding calls cover weakened binding; strength is not graded here. For part of these data: Sequences can lack the tags named with a protein.

B1: in vitro translated HES1 protein (protein, UniProt Q14469 1-280)
chain: MPADIMEKNSSSPVAATPASVNTTPDKPKTASEHRKSSKPIMEKRRRARINESLSQLKTLILDALKKDSSRHSKLEKADILEMTVKHLRNLQRAQMTAALSTDPSVLGKYRAGFSECMNEVTRFLSTCEGVNTEVRTRLLGHLANCMTQINAMTYPGQPHPALQAPPPPPPGPGGPQHAPFAPPPPLVPIPGGAAPPPGGAPCKLGSQAGEAAKVFGGFQVVPAPDGQFAFLIPNGAFAHSGPVIPVYTSNSGTSVGPNAVSPSSGPSLTADSMWRPWRN
Consider B1, for which the binding entry with GST-RIP1(27–439) is listed as “binds”.

B2: HES1 (hes family bHLH transcription factor 1), endogenous (protein, UniProt Q14469 1-280)
chain: B1 chain
In the case of B2, the binding entry in assay [1] and in assay [2] was “binds” each time.

The values are drawn from article PMC11161732.
